Experimental data reported in patent US12269864B2, “Self-assembling collagen-like polypeptides for applications and uses related thereto” (Emory University, priority 2020, dated 2025).
Part of at least one peptide drawing is inferred or uncertain, most often the ends. Where a SMILES comes first, the peptide text is derived from it. [ ]: non-standard residue; d: D form. Hyp = O=C(O)[C@@H]1C[C@@H](O)CN1

Legend:
[1] = Circular dichroism spectropolarimetry, RPN value (triple helix propensity); format: physicochemical; conditions: for RPN value (ratio of positive peak 224 nm to negative peak 198 nm): after incubation for one week at 4° C., RPN ≥0.10 consistent with a stable triple helix
[2] = Thermal denaturation monitored by CD at 224 nm (Tm of triple helix); format: physicochemical
[3] = minimum of first derivative of melting curve, CD signal at 224 nm, 0.5 mg/mL

Structure (SMILES) | RPN value (ratio of positive peak 224 nm to negative peak 198 nm) [1] | melting temperature (Tm) of triple helix [2, 3] [°C] | RPN value ([1]; CD at various pH conditions (pH 6, 7, and 8)) | melting temperature (Tm) of triple helix ([2]; pH 7) [°C]
O=C(O)CC[C@H](NC(=O)CNC(=O)[C@@H]1C[C@@H](O)CN1C(=O)[C@H](CCC(=O)O)NC(=O)CNC(=O)[C@@H]1C[C@@H](O)CN1C(=O)[C@H](CCC(=O)O)NC(=O)CNC(=O)[C@@H]1C[C@@H](O)CN1C(=O)[C@H](CCC(=O)O)NC(=O)CNC(=O)[C@@H]1C[C@@H](O)CN1C(=O)[C@@H]1CCCN1C(=O)CNC(=O)[C@@H]1C[C@@H](O)CN1C(=O)[C@@H]1CCCN1C(=O)CNC(=O)[C@@H]1C[C@@H](O)CN1C(=O)[C@@H]1CCCN1C(=O)CNC(=O)[C@@H]1C[C@@H](O)CN1C(=O)[C@@H]1CCCN1C(=O)CNC(=O)[C@@H]1C[C@@H](O)CN1C(=O)[C@@H]1CCCN1C(=O)CNC(=O)[C@@H]1C[C@@H](O)CN1C(=O)[C@@H]1CCCN1)C(=O)N1C[C@H](O)C[C@H]1C(=O)NCC(=O)O [P6E4, (Pro-Hyp-Gly)6-(Glu-Hyp-Gly)4] (H-P[Hyp]GP[Hyp]GP[Hyp]GP[Hyp]GP[Hyp]GP[Hyp]GE[Hyp]GE[Hyp]GE[Hyp]GE[Hyp]G-OH) | 0.06 | 28 | – | –
N=C(N)NCCC[C@H](NC(=O)[C@@H]1CCCN1)C(=O)NCC(=O)N1CCC[C@H]1C(=O)N[C@@H](CCCNC(=N)N)C(=O)NCC(=O)N1CCC[C@H]1C(=O)N[C@@H](CCCNC(=N)N)C(=O)NCC(=O)N1CCC[C@H]1C(=O)N[C@@H](CCCNC(=N)N)C(=O)NCC(=O)N1CCC[C@H]1C(=O)N1C[C@H](O)C[C@H]1C(=O)NCC(=O)N1CCC[C@H]1C(=O)N1C[C@H](O)C[C@H]1C(=O)NCC(=O)N1CCC[C@H]1C(=O)N1C[C@H](O)C[C@H]1C(=O)NCC(=O)N1CCC[C@H]1C(=O)N1C[C@H](O)C[C@H]1C(=O)NCC(=O)N1CCC[C@H]1C(=O)N1C[C@H](O)C[C@H]1C(=O)NCC(=O)N1CCC[C@H]1C(=O)N1C[C@H](O)C[C@H]1C(=O)NCC(=O)O [R4P6, (Pro-Arg-Gly)4-(Pro-Hyp-Gly)6] | 0.08 | 37 | – | –
N=C(N)NCCC[C@H](NC(=O)[C@@H]1CCCN1)C(=O)NCC(=O)N1CCC[C@H]1C(=O)N[C@@H](CCCNC(=N)N)C(=O)NCC(=O)N1CCC[C@H]1C(=O)N[C@@H](CCCNC(=N)N)C(=O)NCC(=O)N1CCC[C@H]1C(=O)N[C@@H](CCCNC(=N)N)C(=O)NCC(=O)N1CCC[C@H]1C(=O)N[C@@H](CCCNC(=N)N)C(=O)NCC(=O)N1CCC[C@H]1C(=O)N[C@@H](CCCNC(=N)N)C(=O)NCC(=O)N1CCC[C@H]1C(=O)N1C[C@H](O)C[C@H]1C(=O)NCC(=O)N1CCC[C@H]1C(=O)N1C[C@H](O)C[C@H]1C(=O)NCC(=O)N1CCC[C@H]1C(=O)N1C[C@H](O)C[C@H]1C(=O)NCC(=O)N1CCC[C@H]1C(=O)N1C[C@H](O)C[C@H]1C(=O)NCC(=O)N1CCC[C@H]1C(=O)N1C[C@H](O)C[C@H]1C(=O)NCC(=O)N1CCC[C@H]1C(=O)N1C[C@H](O)C[C@H]1C(=O)NCC(=O)O [R6P6, (Pro-Arg-Gly)6-(Pro-Hyp-Gly)6] | – | – | 0.08 | 46
